{
  "source": "patent US20190358343A1",
  "about": "“ADOPTIVE TRANSFER OF CAR T CELLS WITH SURFACE-CONJUGATED DRUG-LOADED NANOPARTICLES AND USES THEREOF” (University of Southern California, priority 2017, published 2019)",
  "experiment": "Drug encapsulation and release of SCH from cell-conjugated nanoparticles",
  "data": [
    {"smiles": "Nc1nc2c(cnn2CCc2ccccc2)c2nc(-c3ccco3)nn12", "note": "[SCH-58261]", "values": [
      {"measurement": "amount released within the first 48h-post conjugation", "result": "half the amount"}
    ]}
  ]
}
